US20230121197A1, “ANTIBODIES SPECIFICALLY BINDING THE CARBOXYMETHYLATED CATALYTIC SUBUNIT OF PROTEIN PHOSPHATASE 2A” (Medizinische Universität Wien, priority 2020, published 2023)

Test system: α-carboxymethylation of PP2Ac
Experiment: H358 xenograft tumors, single dose DT-061 time-course: methyl-PP2Ac by IHC and western blot with 7C10-C5
Parameters: species or system Balb/c nu/nu mice
Details: mouse, in vivo
Procedure: Next, the immunohistochemical analysis of xenograft tumors was performed. In brief, five micron sections from formalin-fixed paraffin-embedded (FFPE) specimens were deparaffinized in Histo-Clear and ethanol, exposed to 0.3% hydrogen peroxide to block endogenous peroxidase activity, and incubated for antigen retrieval with a citrate-based antigen unmasking solution (H-3300, Vector Laboratories) in a pressure cooker. Tumor sections were blocked with Mouse Ig Blocking Reagent (BMK-2202, Vector Laboratories), and incubated with anti-carboxymethyl PP2Ac specific antibody (7C10-C5) or an antibody recognizing total PP2Ac (ab106262) at 4° C. for two nights. Washes were performed in PBS. Slides were subsequently developed using secondary anti-mouse immunoglobulins/HRP (K1497, Agilent), DAB peroxidase substrate as the chromagen, and hematoxylin for counterstaining nuclei. Slides were sealed, and randomized for subsequent blinded review. Two independent researchers scored the level of carboxymethylated PP2Ac staining (with 7C10-C5) in one section per tumor (min. 6 tumors per treatment/control group). […] Scores from 0-2 are considered low staining, 2-4 as moderate, and 4-6 as high intensity staining. Based on these scores the data was plotted as the percentage of slides from each time point that fell into each group (FIG. 14I).

For `O=S(=O)(N[C@@H]1CCC[C@H](N2c3ccccc3Oc3ccccc32)[C@H]1O)c1ccc(OC(F)(F)F)cc1` [DT-061], the “correlation between tPP2Ac densitometry and DT-061 serum concentrations” value was “no correlation observed”.
